# Assay results reported in the supplement of paper PMC12823440, “Inhibitors supercharge kinase turnover through native proteolytic circuits” (Nature, 2025).
# Amino acid sequences for entries named in this document (tags omitted). A change or cut given only in a name is not applied to a line headed by its entry.
# UniProt Q13131: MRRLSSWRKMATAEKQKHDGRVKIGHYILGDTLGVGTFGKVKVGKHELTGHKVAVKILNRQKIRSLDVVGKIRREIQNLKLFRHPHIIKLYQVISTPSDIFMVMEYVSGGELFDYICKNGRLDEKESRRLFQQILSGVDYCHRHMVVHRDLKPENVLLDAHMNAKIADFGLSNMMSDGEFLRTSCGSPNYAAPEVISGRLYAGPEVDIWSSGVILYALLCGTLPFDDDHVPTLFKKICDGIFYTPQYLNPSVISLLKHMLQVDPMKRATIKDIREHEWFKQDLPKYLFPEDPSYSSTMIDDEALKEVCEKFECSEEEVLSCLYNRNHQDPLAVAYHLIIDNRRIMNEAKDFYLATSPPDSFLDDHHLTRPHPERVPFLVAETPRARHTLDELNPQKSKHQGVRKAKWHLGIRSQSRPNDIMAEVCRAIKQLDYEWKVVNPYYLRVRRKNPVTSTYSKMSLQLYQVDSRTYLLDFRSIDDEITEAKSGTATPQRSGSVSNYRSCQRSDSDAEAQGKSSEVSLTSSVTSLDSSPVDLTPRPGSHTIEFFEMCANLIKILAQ
# Structures can show the parent of a compound that is named as a salt. The list shows a part of the results. The calls rarely recur for the same compound in another form.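 Kinases, fused to nanoluciferase, were expressed in K562 cells; luminescence was measured every 4 h from 2 to 18 h as percent of control (DMSO = 100%, positive control = 0%). A time point is decreased if signal falls significantly (2 sigma). Hits were called by the authors by a rule that is not shown; the count of time points alone does not decide it.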
# Target: PRKAA1 (UniProt Q13131)
# Experiment: number of time points (of 5) at which kinase-Nluc abundance scored as decreased, DMSO-normalised (count); higher = more persistent destabilization
# Conditions: K562; 2-18 h
row,SMILES,number of time points
1,C[C@@H](c1ccc2nccn2c1)n1nnc2ncc(-c3cnn(C)c3)nc21 [Savolitinib] (10 µM),0
2,CN1C(=O)C(Cc2c[nH]c3ccccc23)NC1=S (stereo not drawn) [Necrostatin-1] (10 µM),0
3,C[C@@H]1C(=O)O[C@H](C)[C@H]1C[C@@H](O)[C@](C)(O)[C@H]1CC[C@@]2(O)C3=CC(=O)[C@@H]4C[C@@H](O)[C@@H](O)C[C@]4(C)[C@H]3CC[C@]12C [Cyasterone] (10 µM),0
4,CC(c1ccc(-c2cnc3c(-c4ccc(S(N)(=O)=O)c5ccccc45)cnn3c2)cc1)N1CCCC1 (stereo not drawn) (2.5 µM),0
5,CCn1c(=O)c(-c2ccc(-c3cncc(C)n3)cc2Cl)cc2cnc(NCCC3CCN(C)CC3)nc21 (10 µM),0
6,"O=C(O)c1cc(O)ccc1O [2,5-Dihydroxybenzoic acid] (10 µM)",0
7,CC(=NNC(=O)c1ccc(C)c(Br)c1)c1ccc(O)cc1O [mTOR inhibitor-1] (2.5 µM),0
8,Nc1ncnc2c1ncn2[C@@H]1O[C@H](CO)C[C@H]1O [Cordycepin] (10 µM),0
9,C=CC(=O)Nc1cc2c(Nc3ccc(OCc4ccccn4)c(Cl)c3)ncnc2cc1OCCN1CCOCC1 (10 µM),0
10,Cc1ccc(S(=O)(=O)Nc2ccccc2C=Nc2ccccc2NS(=O)(=O)c2ccc(C)cc2)cc1 (10 µM),0
11,CCOc1cc(C(=O)N2CCC(N3CCN(C)CC3)CC2)ccc1Nc1ncc2c(n1)N(C1CCCC1)c1ccccc1C(=O)N2C (10 µM),0
12,Cn1cnc(-c2cc3nccc(Oc4ccc(NC(=S)NC(=O)Cc5ccccc5)cc4F)c3s2)c1 [MGCD-265 analog] (10 µM),1
13,Cn1c(=O)c(F)c(Nc2ccc(I)cc2F)c2c(=O)n(C[C@@H](O)CO)cnc21 (10 µM),0
14,Nc1ncnc2c1c(-c1ccc(Oc3ccccc3)cc1)nn2C1CCNCC1 [N-piperidine Ibrutinib (hydrochloride)] (10 µM),0
15,Cc1csc(-c2nnc(Nc3ccc(Oc4ncccc4-c4ccnc(N)n4)cc3)c3ccccc23)c1 (2.5 µM),0
16,O=C(O)CCc1ccc(O)c(O)c1 [Dihydrocaffeic acid] (10 µM),0
17,COCCOc1cnc(Sc2cc(C)c(-c3csc(NC(=O)c4ccncc4)n3)c(C)c2)cn1 [T-1101 (tosylate)] (2.5 µM),0
18,Cc1cc(NC(=O)c2cccc(NC(=O)/C=C/CN(C)C)c2)ccc1Nc1nccc(-c2cccnc2)n1 (10 µM),0
19,Cc1c(NC(=O)OC[C@@H]2COCCN2)cn2ncnc(Nc3ccc4c(cnn4Cc4cccc(F)c4)c3)c12 (10 µM),0

# Reprinted from the results shown for reference:
row,SMILES,number of time points
15,Cc1csc(-c2nnc(Nc3ccc(Oc4ncccc4-c4ccnc(N)n4)cc3)c3ccccc23)c1 (2.5 µM),0
16,O=C(O)CCc1ccc(O)c(O)c1 [Dihydrocaffeic acid] (10 µM),0

# Additional entries:

row,SMILES,number of time points
1,Cc1ccc(-c2c(C(=O)CF)n(CCCO)c3ncnc(N)c23)cc1 (10 µM),0
2,Cc1ccc(-c2c(C(=O)CCl)n(CCCO)c3ncnc(N)c23)cc1 (10 µM),0
3,COc1cc(F)c(F)c(Nc2ccc(I)cc2F)c1NS(=O)(=O)C1(C[C@H](O)CO)CC1 [Refametinib] (10 µM),1
4,CCN(CC)c1ccc2cc(C(=O)N3CCN(C(=O)C4=Cc5c(Br)cccc5S4(=O)=O)CC3)c(=O)oc2c1 (2 µM),0
5,COc1ccc(C(=C2C(=O)Nc3ccccc32)c2ccc(OC)cc2)cc1 (10 µM),0
6,N#Cc1ccc2ncnc(NC3CCC(N4CCOCC4)CC3)c2c1 (stereo not drawn) (10 µM),0
7,NCCN1CCN(C/C=C/C(=O)N2CCC[C@@H](n3nc(-c4ccc(Oc5ccccc5)cc4)c4c(N)ncnc43)C2)CC1 [Ibrutinib-MPEA] (10 µM),0
8,CN(CC(=O)N(Cc1ccc(C2CCCCC2)cc1)c1ccc(C(=O)O)cc1)S(=O)(=O)c1c(F)c(F)c(F)c(F)c1F (2.5 µM),0
9,CCn1c(C(=O)N(C2CC2)C2CC2)cc2c3c(ncn3C)c(Nc3cc(C)n(C)n3)nc21 (10 µM),0
10,CC(C)CN(CC(=O)N1CCN(CC(OCc2ccc3ccccc3c2)c2ccc(Cl)cc2Cl)CC1)CC(C)C (stereo not drawn) [LYN-1604 (dihydrochloride)] (2.5 µM),0
11,COc1ccc2[nH]cc(/C=C3\C(=O)Nc4ccc(NC(=O)CCN5CCCCC5)cc43)c2c1 (2.5 µM),0
12,CC(C)=CC(=O)CCC(=O)N1CCN(Cc2cc3nc(-c4cccc5[nH]ncc45)nc(N4CCOCC4)c3s2)CC1 (10 µM),0
13,O=C(NCCO)c1ccc2c(c1)nc(Nc1cccc(Cl)c1)c1ccncc12 [CK2 inhibitor 2] (10 µM),0
14,COc1ccc(CC(=O)Nc2nc3c(s2)CCc2ccccc2-3)cc1OC (10 µM),0
15,c1cc2c(cc1O[C@H]1OC[C@H]3[C@@H]1CO[C@@H]3c1ccc3c(c1)OCO3)OCO2 [Sesamolin] (10 µM),0
16,OCCNC1CCCc2c1[nH]c1ccc(-c3ccccc3)cc21 (stereo not drawn) (2.5 µM),0
17,CNc1nc(Nc2cnn(C3CCN(C4COC4)CC3F)c2Cl)ncc1C(F)(F)F (stereo not drawn) (10 µM),0
18,Cc1cc2cc(Nc3ccnc(Nc4ccc5[nH]c(C)cc5c4)n3)ccc2[nH]1 (2.5 µM),0
19,CC(C)(C)NC(=O)c1cncn1C1CCN(c2ccc(-c3nnc(C(F)(F)F)o3)cn2)CC1 (10 µM),0
